Test results as given in the supplement of paper PMC3353916.

Tested on: Sindbis virus TE/5'2J-GFP
Assay: percent infected (GFP+ in RFP+ ISG-expressing cells); higher = more infection (less antiviral activity)
Details: experiment: primary screen (single well)

Sequence: MRSCFCVRRSRDPPPPQPPPPPPQRGTDQSTMPEVKDLSEALPETSMDPITGVGVVASRNRAPTGYDVVAQTADGVDADLWKDGLFKSKVTRYLCFTRSFSKENSHLGNVLVDMKLIDIKDTLPVGFIPIQETVDTQEVAFRKKRLCIKFIPRDSTEAAICDIRIMGRTKQAPPQYTFIGELNSMGIWYRMGRVPRNHDSSQPTTPSQSSAASTPAPNLPRHISLTLPATFRGRNSTRTDYEYQHSNLYAISAMDGVPFMISEKFSCVPESMQPFDLLGITIKSLAEIEKEYEYSFRTEQSAAARLPPSPTRCQQIPQS [FAM125B]
- percent infected (BHK/HA-Zeo (control)): 97.6%
- percent infected (BHK/NZAP-Zeo (ZAP)): 92.1%

Sequence: MRSRLLLSVAHLPTIRETTEEMLLGGPGQEPPPSPSLDDYVRSISRLAQPTSVLDKATAQGQPRPPHRPAQACRKGRPAVSLRDITARFSGQQPTLPMADTVDPLDWLFGESQEKQPSQRDLPRRTGPSAGLWGPHRQMDSSKPMGAPRGRLCEARMPGHSLARPPQDGQQSSDLRSWTFGQSAQAMASRHRPRPSSVLRTLYSHLPVIHEL [C10orf10]
- percent infected (BHK/HA-Zeo (control)): 87.7%
- percent infected (BHK/NZAP-Zeo (ZAP)): 84.4%

Sequence: MRTSYLLLFTLCLLLSEMASGGNFLTGLGHRSDHYNCVSSGGQCLYSACPIFTKIQGTCYRGKAKCCK [DEFB1]
- percent infected (BHK/HA-Zeo (control)): 90.1%
- percent infected (BHK/NZAP-Zeo (ZAP)): 75%

Sequence: MRVMAPRALLLLLSGGLALTETWACSHSMRYFDTAVSRPGRGEPRFISVGYVDDTQFVRFDSDAASPRGEPRAPWVEQEGPEYWDRETQKYKRQAQADRVSLRNLRGYYNQSEDGSHTLQRMSGCDLGPDGRLLRGYDQSAYDGKDYIALNEDLRSWTAADTAAQITQRKLEAARAAEQLRAYLEGTCVEWLRRYLENGKETLQRAEPPKTHVTHHPLSDHEATLRCWALGFYPAEITLTWQRDGEDQTQDTELVETRPAGDGTFQKWAAVVVPSGQEQRYTCHMQHEGLQEPLTLSWEPSSQPTIPIMGIVAGLAVLVVLAVLGAVVTAMMCRRKSSGGKGGSCSQAACSNSAQGSDESLITCKA [HLA-C]
- percent infected (BHK/HA-Zeo (control)): 95.9%
- percent infected (BHK/NZAP-Zeo (ZAP)): 89.5%

Sequence: MSAALFSLDGPARGAPWPAEPAPFYEPGRAGKPGRGAEPGALGEPGAAAPAMYDDESAIDFSAYIDSMAAVPTLELCHDELFADLFNSNHKAGGAGPLELLPGGPARPLGPGPAAPRLLKREPDWGDGDAPGSLLPAQVAACAQTVVSLAAAGQPTPPTSPEPPRSSPRQTPAPGPAREKSAGKRGPDRGSPEYRQRRERNNIAVRKSRDKAKRRNQEMQQKLVELSAENEKLHQRVEQLTRDLAGLRQFFKQLPSPPFLPAAGTADCR [CEBPD]
- percent infected (BHK/HA-Zeo (control)): 98%
- percent infected (BHK/NZAP-Zeo (ZAP)): 89.9%

Sequence: MSALNWKPFVYGGLASITAECGTFPIDLTKTRLQIQGQTNDAKFKEIRYRGMLHALVRIGREEGLKALYSGIAPAMLRQASYGTIKIGTYQSLKRLFIERPEDETLPINVICGILSGVISSTIANPTDVLKIRMQAQSNTIQGGMIGNFMNIYQQEGTRGLWKGVSLTAQRAAIVVGVELPVYDITKKHLILSGLMGDTVYTHFLSSFTCGLAGALASNPVDVVRTRMMNQRVLRDGRCSGYTGTLDCLLQTWKNEGFFALYKGFWPNWLRLGPWNIIFFVTYEQLKKLDL [SLC25A30]
- percent infected (BHK/HA-Zeo (control)): 98.7%
- percent infected (BHK/NZAP-Zeo (ZAP)): 98.5%

Sequence: MSAPLDAALHALQEEQARLKMRLWDLQQLRKELGDSPKDKVPFSVPKIPLVFRGHTQQDPEVPKSLVSNLRIHCPLLAGSALITFDDPKVAEQVLQQKEHTINMEECRLRVQVQPLELPMVTTIQMSSQLSGRRVLVTGFPASLRLSEEELLDKLEIFFGKTRNGGGDVDVRELLPGSVMLGFARDGVAQRLCQIGQFTVPLGGQQVPLRVSPYVNGEIQKAEIRSQPVPRSVLVLNIPDILDGPELHDVLEIHFQKPTRGGGEVEALTVVPQGQQGLAVFTSESG [IFI35]
- percent infected (BHK/HA-Zeo (control)): 96.8%
- percent infected (BHK/NZAP-Zeo (ZAP)): 93.7%

Sequence: MSDAAVDTSSEITTKDLKEKKEVVEEAENGRDAPANGNAENEENGEQEADNEVDEEEEEGGEEEEEEEEGDGEEEDGDEDEEAESATGKRAAEDDEDDDVDTKKQKTDEDD [PTMA]
- percent infected (BHK/HA-Zeo (control)): 98.2%
- percent infected (BHK/NZAP-Zeo (ZAP)): 95.7%

Sequence: MSDGDYDYLIKFLALGDSGVGKTSVLYQYTDGKFNSKFITTVGIDFREKRVVYRASGPDGATGRGQRIHLQLWDTAGQERFRSLTTAFFRDAMGFLLLFDLTNEQSFLNVRNWISQLQMHAYCENPDIVLCGNKSDLEDQRVVKEEEAIALAEKYGIPYFETSAANGTNISQAIEMLLDLIMKRMERCVDKSWIPEGVVRSNGHASTDQLSEEKEKGACGC [RAB27A]
- percent infected (BHK/HA-Zeo (control)): 98.5%
- percent infected (BHK/NZAP-Zeo (ZAP)): 95.1%

Sequence: MSDVTIVKEGWVQKRGEYIKNWRPRYFLLKTDGSFIGYKEKPQDVDLPYPLNNFSVAKCQLMKTERPKPNTFIIRCLQWTTVIERTFHVDTPEEREEWTEAIQAVADRLQRQEEERMNCSPTSQIDNIGEEEMDASTTHHKRKTMNDFDYLKLLGKGTFGKVILVREKASGKYYAMKILKKEVIIAKDEVAHTLTESRVLKNTRHPFLTSLKYSFQTKDRLCFVMEYVNGGELFFHLSRERVFSEDRTRFYGAEIVSALDYLHSGKIVYRDLKLENLMLDKDGHIKITDFGLCKEGITDAATMKTFCGTPEYLAPEVLEDNDYGRAVDWWGLGVVMYEMMCGRLPFYNQDHEKLFELILMEDIKFPRTLSSDAKSLLSGLLIKDPNKRLGGGPDDAKEIMRHSFFSGVNWQDVYDKKLVPPFKPQVTSETDTRYFDEEFTAQTITITPPEKYDEDGMDCMDNERRPHFPQFSYSASGRE [AKT3]
- percent infected (BHK/HA-Zeo (control)): 98.9%
- percent infected (BHK/NZAP-Zeo (ZAP)): 98%

Sequence: MSEIRKDTLKAILLELECHFTWNLLKEDIDLFEVEDTIGQQLEFLTTKSRLALYNLLAYVKHLKGQNKDALECLEQAEEIIQQEHSDKEEVRSLVTWGNYAWVYYHMDQLEEAQKYTGKIGNVCKKLSSPSNYKLECPETDCEKGWALLKFGGKYYQKAKAAFEKALEVEPDNPEFNIGYAITVYRLDDSDREGSVKSFSLGPLRKAVTLNPDNSYIKVFLALKLQDVHAEAEGEKYIEEILDQISSQPYVLRYAAKFYRRKNSWNKALELLKKALEVTPTSSFLHHQMGLCYRAQMIQIKKATHNRPKGKDKLKVDELISSAIFHFKAAMERDSMFAFAYTDLANMYAEGGQYSNAEDIFRKALRLENITDDHKHQIHYHYGRFQEFHRKSENTAIHHYLEALKVKDRSPLRTKLTSALKKLSTKRLCHNALDVQSLSALGFVYKLEGEKRQAAEYYEKAQKIDPENAEFLTALCELRLSI [IFIT5]
- percent infected (BHK/HA-Zeo (control)): 97.5%
- percent infected (BHK/NZAP-Zeo (ZAP)): 74.5%

Sequence: MSETPAQCSIKQERISYTPPESPVPSYASSTPLHVPVPRALRMEEDSIRLPAHLRLQPIYWSRDDVAQWLKWAENEFSLRPIDSNTFEMNGKALLLLTKEDFRYRSPHSGDVLYELLQHILKQRKPRILFSPFFHPGNSIHTQPEVILHQNHEEDNCVQRTPRPSVDNVHHNPPTIELLHRSRSPITTNHRPSPDPEQRPLRSPLDNMIRRLSPAERAQGPRPHQENNHQESYPLSVSPMENNHCPASSESHPKPSSPRQESTRVIQLMPSPIMHPLILNPRHSVDFKQSRLSEDGLHREGKPINLSHREDLAYMNHIMVSVSPPEEHAMPIGRIADCRLLWDYVYQLLSDSRYENFIRWEDKESKIFRIVDPNGLARLWGNHKNRTNMTYEKMSRALRHYYKLNIIRKEPGQRLLFRFMKTPDEIMSGRTDRLEHLESQELDEQIYQEDEC [ETV6]
- percent infected (BHK/HA-Zeo (control)): 97.6%

Sequence: MSEVTKNSLEKILPQLKCHFTWNLFKEDSVSRDLEDRVCNQIEFLNTEFKATMYNLLAYIKHLDGNNEAALECLRQAEELIQQEHADQAEIRSLVTWGNYAWVYYHLGRLSDAQIYVDKVKQTCKKFSNPYSIEYSELDCEEGWTQLKCGRNERAKVCFEKALEEKPNNPEFSSGLAIAMYHLDNHPEKQFSTDVLKQAIELSPDNQYVKVLLGLKLQKMNKEAEGEQFVEEALEKSPCQTDVLRSAAKFYRRKGDLDKAIELFQRVLESTPNNGYLYHQIGCCYKAKVRQMQNTGESEASGNKEMIEALKQYAMDYSNKALEKGLNPLNAYSDLAEFLETECYQTPFNKEVPDAEKQQSHQRYCNLQKYNGKSEDTAVQHGLEGLSISKKSTDKEEIKDQPQNVSENLLPQNAPNYWYLQGLIHKQNGDLLQAAKCYEKELGRLLRDAPSGIGSIFLSASELEDGSEEMGQGAVSSSPRELLSNSEQLN [IFIT3]
- percent infected (BHK/HA-Zeo (control)): 95.7%
- percent infected (BHK/NZAP-Zeo (ZAP)): 89%

Sequence: MSFFQLLMKRKELIPLVVFMTVAAGGASSFAVYSLWKTDVILDRKKNPEPWETVDPTVPQKLITINQQWKPIEELQNVQRVTK [C15orf48]
- percent infected (BHK/HA-Zeo (control)): 95.1%
- percent infected (BHK/NZAP-Zeo (ZAP)): 85.5%

Sequence: MSIMDHSPTTGVVTVIVILIAIAALGALILGCWCYLRLQRISQSEDEESIVGDGETKEPFLLVQYSAKGPCVERKAKLMTPNGPEVHG [SNN]
- percent infected (BHK/HA-Zeo (control)): 87.1%
- percent infected (BHK/NZAP-Zeo (ZAP)): 70.5%

Sequence: MSKAFGLLRQICQSILAESSQSPADLEEKKEEDSNMKREQPRERPRAWDYPHGLVGLHNIGQTCCLNSLIQVFVMNVDFTRILKRITVPRGADEQRRSVPFQMLLLLEKMQDSRQKAVRPLELAYCLQKCNVPLFVQHDAAQLYLKLWNLIKDQITDVHLVERLQALYTIRVKDSLICVDCAMESSRNSSMLTLPLSLFDVDSKPLKTLEDALHCFFQPRELSSKSKCFCENCGKKTRGKQVLKLTHLPQTLTIHLMRFSIRNSQTRKICHSLYFPQSLDFSQILPMKRESCDAEEQSGGQYELFAVIAHVGMADSGHYCVYIRNAVDGKWFCFNDSNICLVSWEDIQCTYGNPNYHWQETAYLLVYMKMEC [USP18]
- percent infected (BHK/HA-Zeo (control)): 98%
- percent infected (BHK/NZAP-Zeo (ZAP)): 93.7%

Sequence: MSKAHKPWPYRRRSQFSSRKYLKKEMNSFQQQPPPFGTVPPQMMFPPNWQGAEKDAAFLAKDFNFLTLNNQPPPGNRSQPRAMGPENNLYSQYEQKVRPCIDLIDSLRALGVEQDLALPAIAVIGDQSSGKSSVLEALSGVALPRGSGIVTRCPLVLKLKKQPCEAWAGRISYRNTELELQDPGQVEKEIHKAQNVMAGNGRGISHELISLEITSPEVPDLTIIDLPGITRVAVDNQPRDIGLQIKALIKKYIQRQQTINLVVVPCNVDIATTEALSMAHEVDPEGDRTIGILTKPDLMDRGTEKSVMNVVRNLTYPLKKGYMIVKCRGQQEITNRLSLAEATKKEITFFQTHPYFRVLLEEGSATVPRLAERLTTELIMHIQKSLPLLEGQIRESHQKATEELRRCGADIPSQEADKMFFLIEKIKMFNQDIEKLVEGEEVVRENETRLYNKIREDFKNWVGILATNTQKVKNIIHEEVEKYEKQYRGKELLGFVNYKTFEIIVHQYIQQLVEPALSMLQKAMEIIQQAFINVAKKHFGEFFNLNQTVQSTIEDIKVKHTAKAENMIQLQFRMEQMVFCQDQIYSVVLKKVREEIFNPLGTPSQNMKLNSHFPSNESSVSSFTEIGIHLNAYFLETSKRLANQIPFIIQYFMLRENGDSLQKAMMQILQEKNRYSWLLQEQSETATKRRILKERIYRLTQARHALCQFSSKEIH [MX2]
- percent infected (BHK/NZAP-Zeo (ZAP)): 97.8%

The data scatter; read single values as rough.
